Values from PubChem BioAssay AID1508597 (Cure First, 2020)
Shown is a random part of the about 2,100 reagents, in one setting of the screen. 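Calls flag viability under 80% in either arm, not effects specific to rucaparib; the reference for percent is not stated.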 No sequences are given here. The record does not give: the 100% reference.

Screen: 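Knock-downs altering ovarian cancer cell survival with or without PARP inhibitor rucaparib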 (primary screen)
Cells: human ovarian carcinoma lines grown from tumours: OCI-P5x (papillary serous) and OCI-C5x (clear cell)
Reagents: siRNA pool against human genes, 1.25 pmol siRNA per well
Duration: 72 h or 96 h, depending on the cell culture
Treatment: rucaparib 20 µM (about IC30) or vehicle, present until read-out
Rucaparib or vehicle: Vehicle
Cell line: OCI-P5x (serous)
Read-out: 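Luminescent ATP-based viability assay read 72 or 96 h after transfection, depending on culture, given as normalised percent viability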
Scale: viability, normalised: higher = more viable cells remaining
Hit rule: 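a well counts as a hit if its normalised viability is under 80 percent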
Calls: active = viability under 80%; inactive = viability 80% or more

MAPK15 (mitogen-activated protein kinase 15), technical replicate 1 | viability, normalised (%): 88.1; outcome: inactive
MAPK15 (mitogen-activated protein kinase 15), technical replicate 2 | viability, normalised (%): 80; outcome: active
MAPK15 (mitogen-activated protein kinase 15), technical replicate 3 | viability, normalised (%): 88.4; outcome: inactive
PRDM11 (PR/SET domain 11), technical replicate 1 | viability, normalised (%): 45; outcome: active
PRDM11 (PR/SET domain 11), technical replicate 2 | viability, normalised (%): 48.3; outcome: active
PRDM11 (PR/SET domain 11), technical replicate 3 | viability, normalised (%): 59.6; outcome: active
MAPK7 (mitogen-activated protein kinase 7), technical replicate 1 | viability, normalised (%): 91.3; outcome: inactive
MAPK7 (mitogen-activated protein kinase 7), technical replicate 2 | viability, normalised (%): 98.4; outcome: inactive
MAPK7 (mitogen-activated protein kinase 7), technical replicate 3 | viability, normalised (%): 92.9; outcome: inactive
MED12 (mediator complex subunit 12), technical replicate 1 | viability, normalised (%): 58.2; outcome: active
MED12 (mediator complex subunit 12), technical replicate 2 | viability, normalised (%): 67.4; outcome: active
MED12 (mediator complex subunit 12), technical replicate 3 | viability, normalised (%): 51.8; outcome: active
CDH2 (cadherin 2), technical replicate 1 | viability, normalised (%): 89.1; outcome: inactive
CDH2 (cadherin 2), technical replicate 2 | viability, normalised (%): 75.2; outcome: active
CDH2 (cadherin 2), technical replicate 3 | viability, normalised (%): 134; outcome: inactive
BCORL1 (BCL6 corepressor like 1), technical replicate 1 | viability, normalised (%): 72.8; outcome: active
BCORL1 (BCL6 corepressor like 1), technical replicate 2 | viability, normalised (%): 63.5; outcome: active
BCORL1 (BCL6 corepressor like 1), technical replicate 3 | viability, normalised (%): 88.7; outcome: inactive
CNR2 (cannabinoid receptor 2), technical replicate 1 | viability, normalised (%): 62.5; outcome: active
CNR2 (cannabinoid receptor 2), technical replicate 2 | viability, normalised (%): 74.8; outcome: active
CNR2 (cannabinoid receptor 2), technical replicate 3 | viability, normalised (%): 71.9; outcome: active
MED8 (mediator complex subunit 8), technical replicate 1 | viability, normalised (%): 80.2; outcome: inactive
MED8 (mediator complex subunit 8), technical replicate 2 | viability, normalised (%): 90.8; outcome: inactive
MED8 (mediator complex subunit 8), technical replicate 3 | viability, normalised (%): 85.8; outcome: inactive
DHFR (dihydrofolate reductase), technical replicate 1 | viability, normalised (%): 75; outcome: active
DHFR (dihydrofolate reductase), technical replicate 2 | viability, normalised (%): 73.7; outcome: active
DHFR (dihydrofolate reductase), technical replicate 3 | viability, normalised (%): 72.1; outcome: active
ENPP2 (ectonucleotide pyrophosphatase/phosphodiesterase 2), technical replicate 1 | viability, normalised (%): 64.2; outcome: active
ENPP2 (ectonucleotide pyrophosphatase/phosphodiesterase 2), technical replicate 2 | viability, normalised (%): 71.9; outcome: active
ENPP2 (ectonucleotide pyrophosphatase/phosphodiesterase 2), technical replicate 3 | viability, normalised (%): 66.8; outcome: active
CDKN2A (cyclin dependent kinase inhibitor 2A), technical replicate 1 | viability, normalised (%): 48; outcome: active
CDKN2A (cyclin dependent kinase inhibitor 2A), technical replicate 2 | viability, normalised (%): 53.2; outcome: active
CDKN2A (cyclin dependent kinase inhibitor 2A), technical replicate 3 | viability, normalised (%): 37.4; outcome: active

Looked up above.
MED8 (mediator complex subunit 8), technical replicate 2, viability, normalised (%): 90.8
Entry of MED8 (mediator complex subunit 8), technical replicate 3 under “viability, normalised (%)”: 85.8
CDKN2A (cyclin dependent kinase inhibitor 2A), technical replicate 3, outcome → active
Under “viability, normalised (%)”, PRDM11 (PR/SET domain 11), technical replicate 1 shows 45
CDH2 (cadherin 2), technical replicate 2, viability, normalised (%) → 75.2
